The values below come from paper PMC7098486.

Chains of the proteins cited; added tags and fusions are not shown.
UniProt Q15388: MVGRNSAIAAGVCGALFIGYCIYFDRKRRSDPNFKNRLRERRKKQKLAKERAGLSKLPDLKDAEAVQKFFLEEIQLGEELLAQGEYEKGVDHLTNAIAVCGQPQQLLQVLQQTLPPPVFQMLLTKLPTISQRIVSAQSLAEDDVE
UniProt Q70CQ3: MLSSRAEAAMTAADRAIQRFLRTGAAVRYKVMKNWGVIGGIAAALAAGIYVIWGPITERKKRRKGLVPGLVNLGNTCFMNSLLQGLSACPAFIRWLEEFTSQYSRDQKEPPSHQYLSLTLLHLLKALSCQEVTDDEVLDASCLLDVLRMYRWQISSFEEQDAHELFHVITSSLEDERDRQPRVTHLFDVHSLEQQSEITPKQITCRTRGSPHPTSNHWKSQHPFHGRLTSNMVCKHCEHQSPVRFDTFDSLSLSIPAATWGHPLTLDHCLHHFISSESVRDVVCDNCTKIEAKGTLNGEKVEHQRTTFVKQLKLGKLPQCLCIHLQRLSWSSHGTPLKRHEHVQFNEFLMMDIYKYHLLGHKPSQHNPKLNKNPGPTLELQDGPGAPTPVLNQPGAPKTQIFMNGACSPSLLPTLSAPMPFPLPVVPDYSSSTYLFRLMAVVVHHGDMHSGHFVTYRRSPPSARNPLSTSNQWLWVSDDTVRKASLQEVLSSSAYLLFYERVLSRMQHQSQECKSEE

The target in this assay is TOMM20 (human (endogenous in iNeurons from H9 ES cells)) (UniProt Q15388). Briefly: co-IP; crude mitochondria of USP30+/+ or USP30-/- iNeurons solubilised with 1% digitonin; anti-TOMM20, anti-USP30 or control IgG cross-linked to Protein A resin; 50 ug mitoprep, 4 h at 4 C in 1xMSH buffer with 0.1% digitonin; washes with 0.1% digitonin and 200 mM NaCl; SDS-PAGE and immunoblotting.

These are yes or no findings as the source states them, for the method shown. Binding seen in cells or lysates may run through a third protein. Some results given as binding are weak or reduced against the parent protein; the word gives no strength.

“USP30 (from UniProt Q70CQ3 1-517) (enzyme)”: the binding result was “binds”.
